Assay results published in publication PMC9229887.
These are yes or no findings as the source states them, for the method shown. Binding seen in cells or lysates may run through a third protein. Some binding calls cover weakened binding; strength is not graded here.

Sequences of proteins named here, by UniProt entry; tags and fusion partners are left off. Residues count along the entry.
UniProt Q9BYF1, residues 764-805: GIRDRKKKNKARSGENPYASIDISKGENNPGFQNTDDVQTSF
UniProt P42337: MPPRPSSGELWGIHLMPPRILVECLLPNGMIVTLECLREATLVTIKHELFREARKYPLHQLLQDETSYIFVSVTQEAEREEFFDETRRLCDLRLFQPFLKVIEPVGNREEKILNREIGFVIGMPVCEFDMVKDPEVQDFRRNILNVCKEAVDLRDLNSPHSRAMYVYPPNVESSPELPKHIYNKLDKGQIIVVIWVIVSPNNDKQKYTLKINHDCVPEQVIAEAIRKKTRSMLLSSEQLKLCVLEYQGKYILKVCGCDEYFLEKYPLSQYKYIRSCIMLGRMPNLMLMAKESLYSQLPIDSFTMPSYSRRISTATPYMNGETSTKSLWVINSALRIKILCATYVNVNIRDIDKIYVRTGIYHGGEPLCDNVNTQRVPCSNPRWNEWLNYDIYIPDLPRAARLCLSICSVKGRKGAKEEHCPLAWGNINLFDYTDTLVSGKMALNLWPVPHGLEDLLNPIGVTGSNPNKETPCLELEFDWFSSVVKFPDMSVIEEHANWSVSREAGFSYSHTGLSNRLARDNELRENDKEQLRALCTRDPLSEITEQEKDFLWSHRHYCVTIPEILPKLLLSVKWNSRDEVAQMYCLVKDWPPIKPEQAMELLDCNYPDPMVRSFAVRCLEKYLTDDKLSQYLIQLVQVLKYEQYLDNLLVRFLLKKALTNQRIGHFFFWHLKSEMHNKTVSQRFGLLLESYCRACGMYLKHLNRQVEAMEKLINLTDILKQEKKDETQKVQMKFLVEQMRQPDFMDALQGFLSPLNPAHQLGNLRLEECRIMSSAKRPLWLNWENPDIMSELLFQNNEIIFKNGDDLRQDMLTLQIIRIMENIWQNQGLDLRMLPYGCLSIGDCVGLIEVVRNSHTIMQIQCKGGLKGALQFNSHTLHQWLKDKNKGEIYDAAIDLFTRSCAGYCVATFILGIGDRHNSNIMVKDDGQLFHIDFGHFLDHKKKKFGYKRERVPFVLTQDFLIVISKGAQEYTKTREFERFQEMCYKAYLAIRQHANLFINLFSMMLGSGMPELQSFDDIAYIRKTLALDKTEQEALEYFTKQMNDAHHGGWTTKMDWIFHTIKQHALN
UniProt Q8BTI9: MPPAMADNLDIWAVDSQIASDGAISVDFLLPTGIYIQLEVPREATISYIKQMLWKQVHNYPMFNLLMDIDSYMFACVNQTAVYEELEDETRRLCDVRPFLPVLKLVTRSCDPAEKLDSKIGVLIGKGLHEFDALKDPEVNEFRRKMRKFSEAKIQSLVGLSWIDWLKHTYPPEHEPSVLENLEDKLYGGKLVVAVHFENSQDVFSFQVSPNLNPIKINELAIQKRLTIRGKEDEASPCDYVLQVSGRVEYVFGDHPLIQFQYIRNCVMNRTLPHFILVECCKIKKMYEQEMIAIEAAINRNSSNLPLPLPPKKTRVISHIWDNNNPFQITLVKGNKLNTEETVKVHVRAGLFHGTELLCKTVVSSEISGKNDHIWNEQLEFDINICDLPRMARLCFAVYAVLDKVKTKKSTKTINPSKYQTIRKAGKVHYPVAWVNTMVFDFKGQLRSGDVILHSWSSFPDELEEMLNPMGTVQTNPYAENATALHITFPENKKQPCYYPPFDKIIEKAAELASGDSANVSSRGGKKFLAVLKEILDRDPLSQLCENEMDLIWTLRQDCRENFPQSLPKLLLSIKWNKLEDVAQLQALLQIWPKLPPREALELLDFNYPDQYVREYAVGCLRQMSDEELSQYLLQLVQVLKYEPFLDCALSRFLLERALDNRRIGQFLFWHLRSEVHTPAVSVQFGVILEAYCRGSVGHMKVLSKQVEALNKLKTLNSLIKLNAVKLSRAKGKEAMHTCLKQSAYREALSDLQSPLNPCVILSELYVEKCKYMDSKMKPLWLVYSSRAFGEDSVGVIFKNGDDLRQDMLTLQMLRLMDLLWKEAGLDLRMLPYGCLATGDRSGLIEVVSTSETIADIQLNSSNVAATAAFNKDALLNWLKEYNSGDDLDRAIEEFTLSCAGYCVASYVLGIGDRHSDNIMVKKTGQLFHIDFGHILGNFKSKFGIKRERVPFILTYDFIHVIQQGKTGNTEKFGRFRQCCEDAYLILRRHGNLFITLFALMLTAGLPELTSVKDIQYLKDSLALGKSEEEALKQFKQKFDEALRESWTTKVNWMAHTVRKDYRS

Molecular target: GFP-tagged human ACE2 intracellular domain (ICD) (human) (UniProt Q9BYF1)
Test: co-IP; lysates of FBD-102b cells transfected with GFP-tagged ACE2 intracellular domain, immunoprecipitated with an anti-GFP antibody on protein G resin in the presence of 1 μM GTP or GDP, immunoblotted for the endogenous partner; lysis buffer 50 mM HEPES-NaOH pH 7.5, 150 mM NaCl, 20 mM MgCl2, 0.5% NP-40

binding | Substance
binds | Phosphoinositide 3-kinase α (PI 3-kinase p110α), endogenous in FBD-102b cells (from UniProt P42337 1-1068)
binds | Phosphoinositide 3-kinase β (PI 3-kinase p110β), endogenous in FBD-102b cells (from UniProt Q8BTI9 1-1064)
